Drawing on article PMC4161973, this text covers binding for one substance.

No constants are given. Whether binding was seen depends on the method and setting. In cells and extracts the contact can be indirect. Sequences can lack the tags named with a protein.

For test [1], the target named is T1, GST-tagged Nmd5 (S. cerevisiae) (UniProt P46970).
T1 sequence: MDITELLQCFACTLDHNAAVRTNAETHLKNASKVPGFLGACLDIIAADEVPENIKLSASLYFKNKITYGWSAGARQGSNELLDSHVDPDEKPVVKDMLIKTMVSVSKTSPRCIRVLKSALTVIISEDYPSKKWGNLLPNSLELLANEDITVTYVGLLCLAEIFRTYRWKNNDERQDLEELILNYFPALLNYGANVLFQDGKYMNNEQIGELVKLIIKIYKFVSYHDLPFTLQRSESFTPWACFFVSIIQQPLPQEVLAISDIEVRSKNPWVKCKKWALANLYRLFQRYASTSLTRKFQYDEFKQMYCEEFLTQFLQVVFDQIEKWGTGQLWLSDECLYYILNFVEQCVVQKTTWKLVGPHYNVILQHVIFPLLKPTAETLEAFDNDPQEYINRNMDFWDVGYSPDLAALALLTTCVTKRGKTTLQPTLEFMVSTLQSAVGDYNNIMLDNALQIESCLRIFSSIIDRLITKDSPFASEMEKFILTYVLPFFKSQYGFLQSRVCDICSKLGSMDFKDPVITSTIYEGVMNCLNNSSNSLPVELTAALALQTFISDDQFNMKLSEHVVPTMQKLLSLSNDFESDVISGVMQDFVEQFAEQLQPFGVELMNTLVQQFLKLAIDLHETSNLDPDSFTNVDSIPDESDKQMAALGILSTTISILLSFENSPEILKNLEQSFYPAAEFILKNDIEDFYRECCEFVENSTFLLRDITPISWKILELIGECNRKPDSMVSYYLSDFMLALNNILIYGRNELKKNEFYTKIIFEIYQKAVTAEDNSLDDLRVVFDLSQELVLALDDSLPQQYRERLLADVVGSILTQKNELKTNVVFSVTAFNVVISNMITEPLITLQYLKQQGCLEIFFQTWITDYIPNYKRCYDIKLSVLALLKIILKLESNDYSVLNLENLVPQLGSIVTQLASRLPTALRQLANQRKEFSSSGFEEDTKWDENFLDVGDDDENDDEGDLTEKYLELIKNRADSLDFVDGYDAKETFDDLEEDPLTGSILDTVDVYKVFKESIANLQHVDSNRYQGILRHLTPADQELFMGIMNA
Kind of test: pull-down; GST-importins immobilised on Glutathione Sepharose, incubated with purified 3.4 µM Tsr2 or 4 µM Tsr2:eS26 in PBSKMT with competing E. coli lysates for 1 hr at 4°C; Coomassie Blue staining or Western; both purified.

Test [2] addresses T2, GST-tagged Sxm1 (S. cerevisiae) (UniProt Q04175).
T2 sequence: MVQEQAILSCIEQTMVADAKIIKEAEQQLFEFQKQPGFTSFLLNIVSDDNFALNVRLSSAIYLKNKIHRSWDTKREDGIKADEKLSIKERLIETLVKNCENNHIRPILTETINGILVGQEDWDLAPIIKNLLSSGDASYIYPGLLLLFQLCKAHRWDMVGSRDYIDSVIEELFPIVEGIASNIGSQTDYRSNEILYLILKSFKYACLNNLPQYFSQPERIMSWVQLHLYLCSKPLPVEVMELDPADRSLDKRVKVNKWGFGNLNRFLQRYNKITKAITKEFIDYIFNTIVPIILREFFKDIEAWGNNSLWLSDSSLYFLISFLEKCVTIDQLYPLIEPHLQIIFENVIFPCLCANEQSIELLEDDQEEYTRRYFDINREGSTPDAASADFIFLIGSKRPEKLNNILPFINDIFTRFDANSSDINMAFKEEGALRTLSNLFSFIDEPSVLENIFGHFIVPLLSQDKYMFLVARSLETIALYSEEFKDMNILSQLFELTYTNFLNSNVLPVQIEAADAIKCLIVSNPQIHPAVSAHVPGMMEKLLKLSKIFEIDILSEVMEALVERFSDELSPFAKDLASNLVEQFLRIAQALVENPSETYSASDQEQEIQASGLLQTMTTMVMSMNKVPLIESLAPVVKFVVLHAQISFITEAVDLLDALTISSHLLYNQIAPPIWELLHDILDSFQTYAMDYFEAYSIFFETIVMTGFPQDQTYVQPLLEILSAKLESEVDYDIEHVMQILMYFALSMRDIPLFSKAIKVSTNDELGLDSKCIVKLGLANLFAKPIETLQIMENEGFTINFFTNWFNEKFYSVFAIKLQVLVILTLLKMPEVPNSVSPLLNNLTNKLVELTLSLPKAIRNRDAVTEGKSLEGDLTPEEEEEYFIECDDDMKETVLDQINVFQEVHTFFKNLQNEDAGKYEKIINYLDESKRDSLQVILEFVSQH
Described as above.

Turning to Tsr2:eS26 complex (S. cerevisiae), the binding entry in test [1] and in test [2] was “no binding (tested: 4 µM Tsr2:eS26)” throughout.
